Measurements reported in the supplement of paper PMC3334620.
Over roughly 33,000 sequences, “E-score (-0.5 to 0.5)” has its median near -0.0014; the highest 2% begin near 0.25. The list shows a part of the results.

What follows are sequences tested against T1, Cad1 (UniProt P24813) (assay: PBM E-score (8-mer binding enrichment) (E-score (-0.5 to 0.5)); higher = stronger / more preferred TF binding). Conditions: protein concentration: 100 nM; construct: GST-full length.
T1 sequence: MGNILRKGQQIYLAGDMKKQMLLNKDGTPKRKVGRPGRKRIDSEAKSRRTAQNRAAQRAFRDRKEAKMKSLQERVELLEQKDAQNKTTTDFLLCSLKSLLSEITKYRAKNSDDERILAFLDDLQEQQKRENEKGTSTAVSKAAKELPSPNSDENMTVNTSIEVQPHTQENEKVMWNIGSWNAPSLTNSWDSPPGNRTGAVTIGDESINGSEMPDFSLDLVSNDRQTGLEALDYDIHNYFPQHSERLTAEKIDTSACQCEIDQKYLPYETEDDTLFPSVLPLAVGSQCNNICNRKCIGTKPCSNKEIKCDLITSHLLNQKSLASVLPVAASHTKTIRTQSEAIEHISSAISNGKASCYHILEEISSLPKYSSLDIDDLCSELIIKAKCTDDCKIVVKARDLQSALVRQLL
In short: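 Yeast transcription factors carrying a GST tag, as full-length proteins or DNA-binding domains, were produced by PURExpress in vitro transcription/translation. About 100-200 nM protein was applied to universal all-10-mer Agilent arrays, double-stranded by primer extension on fresh or once-stripped slides. Bound protein was detected with fluorescent anti-GST, and scans were normalised with masliner. The Universal PBM Analysis Suite gave each ungapped eight-base word, pooled with its reverse complement, an E-score, a modified Wilcoxon-Mann-Whitney statistic.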

Sequence	PBM E-score
ATCGTGGC	0.0523
TGCAAAAA	0.0686
GGGGATTA	-0.2
ATTTCTCG	0.332
CCGGTTGA	0.0248
ACGAGCGG	-0.0938
GTACGGAC	0.105
GGCTGCCC	-0.12
GAATTACC	0.111
GGCTGATA	-0.0873
AGGAGCGC	-0.15
AAATGGAT	0.00142
ACAGGGGG	-0.402
ATCCCGGA	0.0915
CAACCAGC	-0.0251
GCGCCAGC	-0.0972
CGAGTATC	-0.101
AGGGCCGC	-0.0441
AACCAGGT	-0.1
ACTTTCGC	0.0833
AACCGCGC	0.14
GAAGTTCA	0.102
AGGTGGAG	-0.233
CGATGCGA	-0.0258
CTAGCTAG	0.279

Sequence	PBM E-score
GAAACAAA	0.0782
AAAGAAAG	0.037
GCTAGTCC	-0.145
AGCGACCT	-0.237
AATTCTCA	0.0911
AGACGACC	-0.018
AGCTCTGA	-0.0348
AATAGCAT	0.0799
CGGATGGA	0.0381
AATGATCT	0.0536
GCCTTATA	-0.0929
AGGATTAT	-0.0734
CCAAAAGC	-0.11
CAGGCATC	-0.0766
AGCATACC	-0.112
ACAGTACC	-0.0272
ACAACTCG	-0.0242
ATCGAACC	0.138
CGTTTCAG	0.148
AGCATGAG	-0.0992
CATTTACC	-0.0436
ACGTACCC	0.0226
CACAGTCA	-0.0235
AATATGTG	0.251
TCAGCGGA	0.232

Sequence	PBM E-score
GTGTGGGA	-0.0443
CATTCATC	0.012
CGAAAACG	0.0757
CGTCAAAG	-0.0613
CCTTATAA	0.0849
ATTTCTGG	0.0461
ATCTCGAA	0.215
GGAGGATA	-0.13
CTGTGAGC	0.037
AATGAGGT	0.0401
CGTCATCA	0.0901
CCCTACAC	-0.0384
TACACGTA	-0.00969
CTAGTCTC	-0.302
ATAATAGC	0.147
CAACGCAC	-0.0247
GCTCCAAA	-0.0403
ATCTCCGG	0.117
ATCCTATG	-0.0362
AACGAGCA	-0.0102
AATCATGG	0.048
ATTTAAGG	-0.0875
TGAGGGAA	-0.187
AACGTCTC	-0.0496
CTACGCTA	-0.187

Sequence	PBM E-score
AATAGTCA	-0.00784
AGCAGGCC	-0.0635
CCCCGGTA	-0.261
CACCCCCC	-0.375
ATATCCGA	0.219
AGTATCCG	0.0117
ACGGAGTC	-0.0617
AAAACAGC	0.0718
GTCCGATA	-0.229
CACGGACC	0.0902
AACCCTAG	-0.0792
TGTCGCAA	-0.137
GAATGAGC	-0.0319
GAGCTGGC	-0.181
GAGGACGC	-0.0161
CCGTAGTC	-0.0421
CGTCCAGC	-0.0486
GCATGAGC	-0.0683
ACACAGGA	-0.178
ATTGTGGC	0.0173
AAACCTCA	0.196
AAACGACC	0.101
ACTTGTGG	-0.0436
CACTTAGC	-0.0539
CCTGTTCA	-0.118

Sequence	PBM E-score
AAATTTTC	0.0644
CATGACTA	0.0268
AATTAATG	0.242
ACCTATCC	0.081
AAGGATCG	-0.0624
CCCACAAG	-0.0242
CAAGGAGC	-0.0849
CCGTGTCA	-0.0894
TCGACTAA	0.0381
ATTCCTGA	0.00269
AAATGACA	0.116
CTGCTACA	0.0654
CGCGGAGA	0.234
CCGGGGCC	-0.237
CCCCCCCC	-0.483
TCGAGACA	-0.145
CAAACTTC	0.106
AGGTACTA	0.0283
CCCTGGGC	-0.233
CAAGGACC	-0.146
ATCCTCCC	-0.263
AGGCGGGG	-0.0196
CATTACCA	0.0981
ACGTGTAA	0.0558
AAGCGCAG	0.0697

Some of the entries so far, as labelled records.
CCCTGGGC
  PBM E-score: -0.233
ACGTGTAA
  PBM E-score: 0.0558

Looked up above:
For PBM E-score, AAGCGCAG is listed with 0.0697
For PBM E-score, TCGAGACA is listed with -0.145
For PBM E-score, CGCGGAGA is listed with 0.234
For PBM E-score, AAATGACA is listed with 0.116

Going on with the list:

Sequence	PBM E-score
ATTATTTA	0.234
ATATTCGA	0.128
TCTCTCCA	-0.192
TCCCAGAA	-0.0764
CCTTACTA	0.211
ACACTGTA	-0.1
CCCGAATC	-0.144
TCGCCTCA	-0.00571
GTATGCGA	0.0739
AGCGTACC	-0.0992
ACAGATAA	0.15
AATCAATC	0.106
CTCCGTTA	-0.0469
GATGTTAA	0.0103
GGTCATAA	-0.0218
ACGTCAAG	-0.0113
AAGGCACA	-0.0665
ACCCACTA	0.107
TAGGGTAA	0.0651
ACGTGAAA	0.139
ATCATGAT	0.211
CGCCATTC	-0.00501
CCTCCCCC	-0.343
AGTGCCCC	-0.176
CATCGAGG	-0.238

Sequence	PBM E-score
GTGCTCAA	0.0739
AGAAAGTA	0.0167
GGCGCGAC	0.0848
CCGTGCAC	0.213
AAATGCCA	-0.0657
CCCGCAGG	-0.23
TAGTACAA	0.11
CCCGTGAG	-0.0452
AAAAGCCA	0.141
CATCGGGG	-0.174
AAAGGCTG	-0.135
CGCACTTA	0.103
TCGGTACA	-0.0456
ACGTCAGG	-0.0808
CACTTCTA	-0.0605
AAGAACGA	0.11
CTGATCAC	-0.0445
GCTTGGTA	0.184
AGGTCCTA	-0.137
GGATGGGA	-0.155
CATGGTAC	0.0416
CGTGGAAC	0.0529
